Results as given in patent US20220389113A1, “BINDING PROTEINS TO CUB DOMAIN-CONTAINING PROTEIN (CDCP1)” (COMMONWEALTH SCIENTIFIC AND INDUSTRIAL RESEARCH ORGANISATION, priority 2019, published 2022).
No constants are given. Whether binding was seen depends on the method and setting. Some results given as binding are weak or reduced against the parent protein; the word gives no strength.

What was measured:
[1] = target: T1, human CUB domain-containing protein 1 (CDCP1), expressed by cells (human) (UniProt Q9H5V8); assay: flow cytometry on TKCC05 cells
T1 sequence: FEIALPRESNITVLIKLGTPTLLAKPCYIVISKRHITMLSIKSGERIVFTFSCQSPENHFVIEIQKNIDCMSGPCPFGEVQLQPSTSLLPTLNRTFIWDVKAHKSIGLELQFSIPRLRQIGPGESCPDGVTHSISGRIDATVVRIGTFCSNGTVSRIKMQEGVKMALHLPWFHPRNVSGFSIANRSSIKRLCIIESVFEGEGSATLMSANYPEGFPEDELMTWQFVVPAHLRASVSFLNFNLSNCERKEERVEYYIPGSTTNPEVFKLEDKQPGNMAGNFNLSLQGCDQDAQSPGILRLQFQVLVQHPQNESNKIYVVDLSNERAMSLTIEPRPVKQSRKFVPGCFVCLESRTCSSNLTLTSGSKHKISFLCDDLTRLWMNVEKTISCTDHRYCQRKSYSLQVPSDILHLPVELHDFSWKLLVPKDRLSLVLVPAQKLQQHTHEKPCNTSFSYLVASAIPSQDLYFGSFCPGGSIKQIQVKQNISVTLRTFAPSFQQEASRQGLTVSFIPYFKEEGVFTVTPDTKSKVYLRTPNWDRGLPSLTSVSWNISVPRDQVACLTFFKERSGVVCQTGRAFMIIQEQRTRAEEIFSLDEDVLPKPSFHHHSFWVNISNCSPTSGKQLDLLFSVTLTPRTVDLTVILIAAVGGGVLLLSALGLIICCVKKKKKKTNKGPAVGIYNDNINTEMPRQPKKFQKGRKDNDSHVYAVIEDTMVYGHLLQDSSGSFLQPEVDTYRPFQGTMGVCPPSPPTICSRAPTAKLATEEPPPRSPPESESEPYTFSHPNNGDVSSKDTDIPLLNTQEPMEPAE

[2] = target: T1, human CUB domain-containing protein 1 (CDCP1), expressed by cells (human); assay: flow cytometry of TKCC05 cells [right panel]
[3] = target: T1, human CUB domain-containing protein 1 (CDCP1), expressed by cells (human); assay: flow cytometry, Atto-550 labelled antibody 10 ng/ml, 1 h at 4 C
[4] = target: T1, human CUB domain-containing protein 1 (CDCP1), expressed by cells (human); assay: flow cytometry, Atto-550 labelled antibody 10 ng/ml, 1 h at 4 °C, 100,000 cells [B]

Measured: binding

B1: human/mouse chimeric 10D7 antibody (antibody, human IgG1, kappa, V domains shown)
VH: EVQLQQFGAELVKPGASVKISCKASGYSFSDFNIEWLKQSHGKSLEWIGDINPNYDSTNYNQKFKGRATLTVDKSSSTAYMEVRSLTSEDTAVYYCARLGYGYAMDYWGQGTSVTVSS
VL: IVMTQSPQSMSMSVGERVTLSCKASENVGAYVSWFQQKPDQSPKLLILAASNRYTGVPARFIGSGSATDFTLTISSVQAEDLADYHCGQSYTYPYTFGGGTKLEIKR
binds: all assays above
